Results published in the supplement of paper PMC10849652.
Some of the results follow.

Amino acid sequences for entries named in this document (tags omitted). A change or cut given only in a name is not applied to a line headed by its entry.
UniProt Q6IPR1: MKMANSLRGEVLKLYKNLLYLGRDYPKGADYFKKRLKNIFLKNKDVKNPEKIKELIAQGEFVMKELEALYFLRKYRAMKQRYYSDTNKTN
UniProt Q96KP1: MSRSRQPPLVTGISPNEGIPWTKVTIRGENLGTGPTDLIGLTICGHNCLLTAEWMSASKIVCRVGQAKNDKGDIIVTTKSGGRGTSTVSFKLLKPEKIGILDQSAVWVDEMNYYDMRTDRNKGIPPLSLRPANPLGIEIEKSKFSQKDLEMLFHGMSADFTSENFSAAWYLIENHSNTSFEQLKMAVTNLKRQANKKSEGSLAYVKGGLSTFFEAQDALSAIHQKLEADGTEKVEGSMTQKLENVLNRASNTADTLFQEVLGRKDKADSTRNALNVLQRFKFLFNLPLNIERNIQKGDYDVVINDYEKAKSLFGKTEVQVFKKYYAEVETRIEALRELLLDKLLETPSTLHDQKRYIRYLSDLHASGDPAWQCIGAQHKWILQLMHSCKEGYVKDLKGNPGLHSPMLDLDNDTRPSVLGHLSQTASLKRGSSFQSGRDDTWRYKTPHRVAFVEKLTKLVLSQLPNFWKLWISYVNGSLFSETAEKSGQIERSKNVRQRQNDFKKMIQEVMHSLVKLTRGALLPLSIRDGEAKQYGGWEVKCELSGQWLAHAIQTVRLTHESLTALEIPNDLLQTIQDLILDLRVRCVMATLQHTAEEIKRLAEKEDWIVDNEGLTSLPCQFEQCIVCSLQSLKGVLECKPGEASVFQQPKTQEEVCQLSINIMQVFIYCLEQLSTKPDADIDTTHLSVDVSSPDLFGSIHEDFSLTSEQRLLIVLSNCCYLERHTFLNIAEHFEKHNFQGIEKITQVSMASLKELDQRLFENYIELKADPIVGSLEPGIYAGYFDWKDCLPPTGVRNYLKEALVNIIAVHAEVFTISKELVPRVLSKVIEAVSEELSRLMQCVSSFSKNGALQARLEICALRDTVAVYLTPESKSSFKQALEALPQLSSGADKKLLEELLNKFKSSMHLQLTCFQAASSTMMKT
UniProt Q8N0U4: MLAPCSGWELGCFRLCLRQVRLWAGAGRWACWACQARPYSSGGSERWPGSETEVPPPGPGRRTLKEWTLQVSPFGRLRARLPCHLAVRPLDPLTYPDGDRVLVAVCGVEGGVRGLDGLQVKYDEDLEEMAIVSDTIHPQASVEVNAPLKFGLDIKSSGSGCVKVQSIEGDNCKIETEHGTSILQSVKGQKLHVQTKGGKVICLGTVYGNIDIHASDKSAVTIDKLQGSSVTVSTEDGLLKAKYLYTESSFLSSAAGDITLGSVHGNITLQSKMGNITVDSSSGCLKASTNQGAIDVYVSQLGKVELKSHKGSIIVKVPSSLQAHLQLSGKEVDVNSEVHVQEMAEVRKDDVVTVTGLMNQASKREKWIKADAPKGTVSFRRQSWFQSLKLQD
UniProt P13804: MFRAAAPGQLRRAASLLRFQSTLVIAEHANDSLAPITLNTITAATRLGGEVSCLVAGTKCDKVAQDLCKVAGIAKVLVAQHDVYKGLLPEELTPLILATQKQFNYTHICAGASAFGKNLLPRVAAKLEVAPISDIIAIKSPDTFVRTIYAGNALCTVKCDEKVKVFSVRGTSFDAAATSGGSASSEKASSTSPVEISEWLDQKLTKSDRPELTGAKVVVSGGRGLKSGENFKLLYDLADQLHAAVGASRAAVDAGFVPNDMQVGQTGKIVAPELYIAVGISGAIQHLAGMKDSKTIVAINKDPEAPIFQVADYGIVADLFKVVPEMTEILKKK
UniProt Q9UBQ6: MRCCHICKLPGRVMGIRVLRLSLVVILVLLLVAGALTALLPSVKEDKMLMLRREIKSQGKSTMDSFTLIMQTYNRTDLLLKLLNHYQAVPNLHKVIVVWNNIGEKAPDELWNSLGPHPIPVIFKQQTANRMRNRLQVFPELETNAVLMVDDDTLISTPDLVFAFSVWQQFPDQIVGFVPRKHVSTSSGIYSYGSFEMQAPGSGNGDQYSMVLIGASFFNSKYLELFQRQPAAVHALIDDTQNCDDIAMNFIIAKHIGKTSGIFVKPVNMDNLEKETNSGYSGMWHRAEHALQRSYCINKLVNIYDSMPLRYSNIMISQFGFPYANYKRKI
UniProt Q99504: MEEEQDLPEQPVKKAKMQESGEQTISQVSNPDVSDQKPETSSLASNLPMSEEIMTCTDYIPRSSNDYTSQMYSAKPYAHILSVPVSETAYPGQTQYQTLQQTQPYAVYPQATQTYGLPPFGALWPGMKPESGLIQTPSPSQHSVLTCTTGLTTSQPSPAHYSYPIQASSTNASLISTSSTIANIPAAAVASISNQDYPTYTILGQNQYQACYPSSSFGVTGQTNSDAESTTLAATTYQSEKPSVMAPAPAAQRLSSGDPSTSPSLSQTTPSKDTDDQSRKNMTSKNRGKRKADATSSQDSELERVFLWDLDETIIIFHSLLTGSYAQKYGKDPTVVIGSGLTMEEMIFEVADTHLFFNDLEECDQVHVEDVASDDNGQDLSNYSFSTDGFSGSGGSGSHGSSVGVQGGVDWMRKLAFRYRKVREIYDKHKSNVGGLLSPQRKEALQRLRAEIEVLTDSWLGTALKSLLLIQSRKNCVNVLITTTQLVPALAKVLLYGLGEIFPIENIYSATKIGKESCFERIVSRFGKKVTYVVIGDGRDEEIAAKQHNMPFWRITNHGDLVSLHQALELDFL
UniProt Q9Y624, whole entry, looked up, stated change not applied: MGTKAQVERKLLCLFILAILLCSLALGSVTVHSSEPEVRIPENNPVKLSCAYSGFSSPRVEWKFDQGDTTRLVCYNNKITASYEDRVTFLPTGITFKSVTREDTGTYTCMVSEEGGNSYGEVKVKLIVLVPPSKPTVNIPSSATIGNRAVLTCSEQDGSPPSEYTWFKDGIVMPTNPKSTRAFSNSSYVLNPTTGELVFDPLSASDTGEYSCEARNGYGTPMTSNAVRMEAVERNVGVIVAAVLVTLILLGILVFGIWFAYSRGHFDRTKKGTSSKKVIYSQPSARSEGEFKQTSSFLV
UniProt Q96DF8: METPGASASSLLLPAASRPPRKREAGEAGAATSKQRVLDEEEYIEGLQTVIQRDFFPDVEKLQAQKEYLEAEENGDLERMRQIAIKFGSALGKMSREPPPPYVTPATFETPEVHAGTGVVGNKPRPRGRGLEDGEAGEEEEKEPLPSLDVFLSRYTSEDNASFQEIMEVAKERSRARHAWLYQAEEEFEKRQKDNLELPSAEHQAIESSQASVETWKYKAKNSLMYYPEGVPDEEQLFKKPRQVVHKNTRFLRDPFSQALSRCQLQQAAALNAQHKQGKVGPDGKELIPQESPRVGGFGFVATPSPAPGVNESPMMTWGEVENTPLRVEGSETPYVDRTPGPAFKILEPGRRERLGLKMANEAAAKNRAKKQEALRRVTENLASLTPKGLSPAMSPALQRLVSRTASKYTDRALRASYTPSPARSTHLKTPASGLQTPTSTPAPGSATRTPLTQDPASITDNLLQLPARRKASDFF
UniProt Q96ND0: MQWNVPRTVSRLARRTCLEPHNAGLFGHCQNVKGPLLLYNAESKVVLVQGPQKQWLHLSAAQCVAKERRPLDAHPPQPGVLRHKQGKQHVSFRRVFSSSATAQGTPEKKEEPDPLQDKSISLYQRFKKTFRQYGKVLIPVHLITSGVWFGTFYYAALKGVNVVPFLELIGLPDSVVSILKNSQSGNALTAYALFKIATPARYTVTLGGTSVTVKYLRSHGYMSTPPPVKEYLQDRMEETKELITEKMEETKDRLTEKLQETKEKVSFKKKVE
UniProt Q6P587: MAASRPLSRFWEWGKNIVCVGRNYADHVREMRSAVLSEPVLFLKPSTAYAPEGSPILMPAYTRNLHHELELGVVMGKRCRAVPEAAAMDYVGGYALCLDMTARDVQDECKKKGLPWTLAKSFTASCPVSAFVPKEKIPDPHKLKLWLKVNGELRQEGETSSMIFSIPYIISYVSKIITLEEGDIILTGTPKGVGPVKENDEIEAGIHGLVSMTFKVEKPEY
UniProt Q9BSJ8: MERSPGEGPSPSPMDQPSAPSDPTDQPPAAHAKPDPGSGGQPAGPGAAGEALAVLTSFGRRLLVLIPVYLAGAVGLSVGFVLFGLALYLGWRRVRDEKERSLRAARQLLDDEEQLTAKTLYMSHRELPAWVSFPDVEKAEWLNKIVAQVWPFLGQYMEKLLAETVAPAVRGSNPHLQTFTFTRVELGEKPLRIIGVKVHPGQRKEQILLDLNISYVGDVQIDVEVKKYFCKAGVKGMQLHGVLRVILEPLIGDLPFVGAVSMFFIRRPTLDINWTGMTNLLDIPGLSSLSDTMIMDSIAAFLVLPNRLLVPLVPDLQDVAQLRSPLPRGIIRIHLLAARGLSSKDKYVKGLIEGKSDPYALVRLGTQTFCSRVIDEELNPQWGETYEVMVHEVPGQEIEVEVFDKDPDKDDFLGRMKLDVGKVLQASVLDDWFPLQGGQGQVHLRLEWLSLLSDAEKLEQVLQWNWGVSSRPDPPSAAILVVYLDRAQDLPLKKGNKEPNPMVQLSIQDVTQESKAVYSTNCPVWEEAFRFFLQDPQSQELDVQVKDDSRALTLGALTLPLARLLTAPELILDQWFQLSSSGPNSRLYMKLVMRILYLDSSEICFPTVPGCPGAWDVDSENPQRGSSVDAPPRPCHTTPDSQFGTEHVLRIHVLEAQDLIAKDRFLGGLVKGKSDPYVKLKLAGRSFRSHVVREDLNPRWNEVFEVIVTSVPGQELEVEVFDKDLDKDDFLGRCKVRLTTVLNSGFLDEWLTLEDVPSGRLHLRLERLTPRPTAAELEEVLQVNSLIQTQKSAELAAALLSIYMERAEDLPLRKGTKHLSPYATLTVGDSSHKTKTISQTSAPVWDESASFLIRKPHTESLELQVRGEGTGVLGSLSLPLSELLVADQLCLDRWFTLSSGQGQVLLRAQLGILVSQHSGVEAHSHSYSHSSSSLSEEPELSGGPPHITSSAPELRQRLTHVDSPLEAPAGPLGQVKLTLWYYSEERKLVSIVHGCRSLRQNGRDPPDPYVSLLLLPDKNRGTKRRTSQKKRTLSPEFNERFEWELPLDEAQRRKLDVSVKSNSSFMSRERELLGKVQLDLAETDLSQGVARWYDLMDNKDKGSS
UniProt Q92520: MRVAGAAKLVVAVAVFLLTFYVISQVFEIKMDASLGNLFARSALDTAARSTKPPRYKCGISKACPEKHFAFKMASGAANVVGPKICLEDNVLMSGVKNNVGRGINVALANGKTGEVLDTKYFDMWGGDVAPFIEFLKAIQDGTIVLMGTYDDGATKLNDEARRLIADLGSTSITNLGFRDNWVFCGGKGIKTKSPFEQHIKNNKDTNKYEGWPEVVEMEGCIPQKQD
UniProt Q96EK7: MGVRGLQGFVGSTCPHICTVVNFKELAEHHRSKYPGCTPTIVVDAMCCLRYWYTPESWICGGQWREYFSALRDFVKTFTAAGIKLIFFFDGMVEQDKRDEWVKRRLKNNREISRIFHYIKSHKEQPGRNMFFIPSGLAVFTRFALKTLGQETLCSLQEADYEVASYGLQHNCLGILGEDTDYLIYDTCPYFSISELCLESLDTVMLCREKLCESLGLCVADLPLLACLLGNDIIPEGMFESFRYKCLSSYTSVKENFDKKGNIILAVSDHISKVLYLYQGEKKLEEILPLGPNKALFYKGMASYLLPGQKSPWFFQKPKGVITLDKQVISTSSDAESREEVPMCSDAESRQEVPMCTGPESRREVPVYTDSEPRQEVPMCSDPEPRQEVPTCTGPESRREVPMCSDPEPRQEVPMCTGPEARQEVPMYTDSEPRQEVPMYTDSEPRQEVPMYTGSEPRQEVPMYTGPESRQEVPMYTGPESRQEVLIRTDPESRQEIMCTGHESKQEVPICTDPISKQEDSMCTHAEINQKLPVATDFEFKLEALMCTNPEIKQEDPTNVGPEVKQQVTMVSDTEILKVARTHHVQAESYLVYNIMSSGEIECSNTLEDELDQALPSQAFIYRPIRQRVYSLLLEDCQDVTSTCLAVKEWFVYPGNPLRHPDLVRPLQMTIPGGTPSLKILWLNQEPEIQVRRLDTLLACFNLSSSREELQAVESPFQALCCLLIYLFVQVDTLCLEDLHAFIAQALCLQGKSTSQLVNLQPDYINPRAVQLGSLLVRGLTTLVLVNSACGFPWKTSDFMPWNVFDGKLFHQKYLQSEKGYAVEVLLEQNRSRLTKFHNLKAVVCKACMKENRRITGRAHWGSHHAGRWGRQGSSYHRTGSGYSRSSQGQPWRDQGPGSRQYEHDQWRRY
UniProt Q06265, whole entry, looked up: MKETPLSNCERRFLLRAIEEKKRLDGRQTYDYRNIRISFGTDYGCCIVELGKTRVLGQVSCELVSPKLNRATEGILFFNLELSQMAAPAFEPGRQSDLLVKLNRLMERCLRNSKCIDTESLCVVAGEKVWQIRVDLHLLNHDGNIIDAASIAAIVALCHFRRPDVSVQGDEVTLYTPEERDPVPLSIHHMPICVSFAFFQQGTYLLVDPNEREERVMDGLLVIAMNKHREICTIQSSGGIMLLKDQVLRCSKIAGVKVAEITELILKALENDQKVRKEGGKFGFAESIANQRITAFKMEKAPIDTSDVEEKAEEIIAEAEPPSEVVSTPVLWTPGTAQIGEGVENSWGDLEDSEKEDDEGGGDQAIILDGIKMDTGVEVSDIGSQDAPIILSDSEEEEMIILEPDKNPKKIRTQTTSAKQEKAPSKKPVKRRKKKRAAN

Key:
Test in all cases: log2 fold change, soluble protein after heating vs DMSO (PISA); higher = thermal stabilisation; K562 lysate, 10 uM; active = over 0.2 and 3.5 SD of the protein, either way, in both replicates (recomputed)
[1] = compound: C1=CC=C(C=C1)[C@H](COC2=CC3=C(C=C2)NC(=O)N3)NC(=O)C4=CC=CN(C4=O)CC5=CC(=C(C=C5)F)F
How it was run: (§1)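 Dounce homogenisation of K562 pellets in PBS pH 7.4 with 1 mM MgCl2 produced a crude extract, used at 1 mg/mL protein. Exposure to 10 μM compound lasted 30 min, and aliquots were then heated for 3 min across 48°C-58°C, pooled and brought to 0.5% NP-40 at 4°C. The supernatant after 21,000xg for 90 min was quantified by TMTpro 16plex LC-MS/MS with channel sums equalised. Duplicate values are given as log-two fold change in thermal stability relative to solvent controls.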

[2] = compound: CC1=C(SC2=C1C(=N[C@H](C3=NN=C(N32)C)CC(=O)N)C4=CC=C(C=C4)Cl)C
How it was run: as §1

[3] = compound: CC1=C2C(=CC=C1)N=C(N(C2=O)C3=CC=CC=C3C)CN4C=NC5=C(N=CN=C54)N
How it was run: as §1

[4] = compound: Cc1sc2c(c1C)C(c1ccc(Cl)cc1)=N[C@@H](CC(=O)OC(C)(C)C)c1nnc(C)n1-2
How it was run: as §1

[5] = compound: c1ccc([C@@H]2C[C@H]2NC2CCNCC2)cc1
How it was run: as §1

Measured: log2 fold change

EZR (UniProt P15311)
inactive: [1] 0.013 | [2] 0.011 | [3] -0.015 | [4] 0.014 | [5] 0.051

F10 (UniProt P00742)
inactive: [1] -0.047 | [2] -0.053

EXOSC2 (UniProt Q13868)
inactive: [1] 0.005 | [2] 0.011 | [3] 0.004 | [4] -0.011 | [5] -0.026

FAM114A1 (UniProt Q8IWE2)
inactive: [1] -0.076 | [2] 0.136 | [3] 0.085 | [4] 0.032 | [5] -0.063

F2 (UniProt P00734)
inactive: [1] 0.02 | [2] -0.044

EVL isoform 2 (UniProt Q9UI08)
inactive: [1] 0.063 | [2] -0.049 | [3] -0.01 | [4] -0.132 | [5] -0.01

FAM172A (UniProt Q8WUF8)
inactive: [1] 0.084 | [2] 0.043 | [3] 0.004 | [4] -0.157

ETFB (UniProt P38117)
inactive: [1] 0 | [2] 0.012 | [3] -0.006 | [4] -0.03 | [5] -0.04

EXOSC1 (UniProt Q9Y3B2)
inactive: [1] 0.021 | [2] 0.04 | [3] -0.025 | [4] 0.013 | [5] 0.006

2 neighbouring entries already listed:
ETFB (UniProt P38117)
inactive: [1] 0 | [2] 0.012 | [3] -0.006 | [4] -0.03 | [5] -0.04

EXOSC1 (UniProt Q9Y3B2)
inactive: [1] 0.021 | [2] 0.04 | [3] -0.025 | [4] 0.013 | [5] 0.006

Further results follow:

FAM160B1 (UniProt Q5W0V3)
inactive: [1] 0.018 | [2] -0.011 | [3] 0.008 | [4] 0.034 | [5] -0.012

EXOC5 (UniProt O00471)
inactive: [1] -0.065 | [2] -0.002 | [3] 0.068 | [4] -0.023 | [5] 0.035

FAM133B (UniProt Q5BKY9)
inactive: [1] 0.148 | [2] -0.014 | [3] -0.26 | [4] -0.028 | [5] 0.156

ETHE1 (UniProt O95571)
inactive: [1] 0.008 | [2] 0.003 | [3] 0.008 | [4] 0.048 | [5] -0.147

FAM117A (UniProt Q9C073)
inactive: [1] 0.016 | [2] 0.004 | [3] -0.026 | [4] 0.013 | [5] 0.046

EWSR1 (UniProt H7BY36)
inactive: [1] -0.079 | [2] -0.06 | [3] 0.091 | [4] -0.058 | [5] 0.061

ETFDH (UniProt Q16134)
inactive: [1] 0.027 | [2] 0.013 | [3] 0.016 | [4] -0.038 | [5] 0.045

ETFRF1 (UniProt Q6IPR1)
inactive: [1] 0.021 | [2] 0.058 | [3] -0.031 | [4] -0.02 | [5] 0.066

FAIM isoform 2 (UniProt Q9NVQ4)
inactive: [1] 0.071 | [2] 0.074 | [3] 0.037 | [4] -0.017 | [5] 0.002

FAHD2B (UniProt Q6P2I3)
inactive: [1] 0.007 | [2] -0.006 | [3] -0.02 | [4] -0.161 | [5] 0.004

EXOC3 (UniProt O60645)
inactive: [1] -0.026 | [2] -0.019 | [3] 0.053 | [4] -0.017 | [5] 0.08

FAM3A (UniProt P98173)
inactive: [1] -0.044 | [2] -0.011 | [3] -0.011 | [4] 0.014 | [5] 0.035

FAM32A (UniProt Q9Y421)
inactive: [1] 0.065 | [2] -0.016 | [3] -0.076 | [4] -0.007 | [5] -0.035

EXOC2 (UniProt Q96KP1)
inactive: [1] -0.01 | [2] -0.018 | [3] -0.013 | [4] -0.019 | [5] 0.063

FAM185A (UniProt Q8N0U4)
inactive: [1] -0.004 | [2] -0.025 | [3] 0.086 | [4] 0.018 | [5] -0.02

EXT2 isoform 3 (UniProt Q93063)
inactive: [1] 0.085 | [2] -0.038 | [3] -0.044 | [4] -0.044 | [5] -0.039

ETF1 (UniProt P62495)
inactive: [1] 0.006 | [2] 0.012 | [3] 0.005 | [4] -0.007 | [5] -0.008

ETFA (UniProt P13804)
inactive: [1] -0.01 | [2] 0.006 | [3] 0.022 | [4] -0.041 | [5] 0

EXOSC6 (UniProt Q5RKV6)
inactive: [1] 0.005 | [2] 0.01 | [3] 0.015 | [4] -0.046 | [5] 0.005

EXTL2 (UniProt Q9UBQ6)
inactive: [1] 0.208 | [2] 0.235 | [3] -0.059 | [4] -0.185 | [5] 0.028

EYA3 (UniProt Q99504)
inactive: [1] -0.024 | [2] -0.011 | [3] -0.048 | [4] -0.027 | [5] -0.004

FAM136A (UniProt Q96C01)
inactive: [1] 0.049 | [2] -0.12 | [3] -0.029 | [4] -0.048 | [5] -0.002

FABP5 (UniProt Q01469)
inactive: [1] 0.047 | [2] -0.004 | [3] -0.083 | [4] 0.059 | [5] -0.018

FAM107B isoform 2 (UniProt Q9H098)
inactive: [1] 0 | [2] 0.023 | [3] 0.17 | [4] -0.163 | [5] -0.022

FAM207A (UniProt Q9NSI2)
inactive: [1] 0.032 | [2] 0.022 | [3] 0 | [4] 0.04 | [5] 0.032

F11R (UniProt Q9Y624)
inactive: [1] 0.022 | [2] -0.012 | [3] 0.03 | [4] -0.024 | [5] -0.055

ESF1 (UniProt Q9H501)
inactive: [1] 0.04 | [2] 0.036 | [3] 0.021 | [4] 0.037 | [5] -0.027

ESS2 (UniProt Q96DF8)
inactive: [1] 0.064 | [2] 0.096 | [3] 0.016 | [4] -0.017 | [5] -0.045

EXOSC10 (UniProt Q01780)
inactive: [1] 0.026 | [2] -0.014 | [3] -0.005 | [4] 0.038 | [5] -0.017

FAM210A (UniProt Q96ND0)
inactive: [1] 0.03 | [2] -0.001 | [3] -0.019 | [4] -0.002 | [5] -0.042

ESPL1 (UniProt Q14674)
inactive: [1] 0.016 | [2] 0.129 | [3] 0.251 | [4] 0.136 | [5] 0.077

FAHD1 (UniProt Q6P587)
inactive: [1] -0.073 | [2] 0.013 | [3] -0.084 | [4] -0.003 | [5] -0.183

ESRRA (UniProt P11474)
inactive: [1] 0.204 | [2] -0.018 | [3] 0.029 | [4] 0.046 | [5] 0.264

FAM118B (UniProt Q9BPY3)
inactive: [1] -0.025 | [2] -0.062 | [3] -0.01 | [4] -0.018 | [5] 0.01

ESYT1 isoform 2 (UniProt Q9BSJ8)
inactive: [1] 0.02 | [2] 0.003 | [3] -0.015 | [4] 0.022 | [5] 0.03

FAM3C (UniProt Q92520)
inactive: [1] 0.031 | [2] -0.02 | [3] -0.003 | [4] 0.048 | [5] -0.075

EXOSC4 (UniProt Q9NPD3)
inactive: [1] -0.01 | [2] 0.023 | [3] 0.04 | [4] -0.032 | [5] -0.004

ERLIN1 (UniProt O75477)
inactive: [1] -0.03 | [2] 0.039 | [3] 0.02 | [4] 0.029 | [5] -0.033

FAM83A (UniProt Q86UY5)
inactive: [1] 0.065 | [2] -0.023 | [3] 0.063 | [4] 0.11 | [5] -0.039

EXOG (UniProt Q9Y2C4)
inactive: [1] -0.133 | [2] 0.106 | [3] -0.039 | [4] 0.023 | [5] -0.025

FAM120B (UniProt Q96EK7)
inactive: [1] 0.034 | [2] 0.059 | [3] -0.004 | [4] -0.016 | [5] 0.035

FAAP100 (UniProt Q0VG06)
inactive: [1] 0.001 | [2] 0 | [3] 0.101 | [4] 0.01 | [5] -0.048

FAM177A1 isoform 2 (UniProt Q8N128)
inactive: [1] -0.093 | [2] 0.05 | [3] -0.053 | [4] 0.002 | [5] 0.078

ERVK3-1, A0A0U1RQV1
inactive: [1] 0.019 | [2] -0.07 | [3] 0.034 | [4] -0.07 | [5] -0.093

EXOSC9 (UniProt Q06265)
inactive: [1] -0.03 | [2] -0.001 | [3] 0.015 | [4] -0.019 | [5] -0.018
